Results published in the supplement of paper PMC11006884.
This list holds what a sample rich in targets with a hit left over. Single values of this set are uncertain. The entries are a selection whose mix differs from that of the whole data set.

The chains behind the UniProt entries cited, without tags or fusion partners. Where a name states a change or a piece, a line headed by the entry shows the natural chain unless it says otherwise.
UniProt P14854, whole entry: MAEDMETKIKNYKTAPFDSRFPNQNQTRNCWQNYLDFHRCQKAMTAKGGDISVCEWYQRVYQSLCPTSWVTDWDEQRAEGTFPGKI
UniProt P14866: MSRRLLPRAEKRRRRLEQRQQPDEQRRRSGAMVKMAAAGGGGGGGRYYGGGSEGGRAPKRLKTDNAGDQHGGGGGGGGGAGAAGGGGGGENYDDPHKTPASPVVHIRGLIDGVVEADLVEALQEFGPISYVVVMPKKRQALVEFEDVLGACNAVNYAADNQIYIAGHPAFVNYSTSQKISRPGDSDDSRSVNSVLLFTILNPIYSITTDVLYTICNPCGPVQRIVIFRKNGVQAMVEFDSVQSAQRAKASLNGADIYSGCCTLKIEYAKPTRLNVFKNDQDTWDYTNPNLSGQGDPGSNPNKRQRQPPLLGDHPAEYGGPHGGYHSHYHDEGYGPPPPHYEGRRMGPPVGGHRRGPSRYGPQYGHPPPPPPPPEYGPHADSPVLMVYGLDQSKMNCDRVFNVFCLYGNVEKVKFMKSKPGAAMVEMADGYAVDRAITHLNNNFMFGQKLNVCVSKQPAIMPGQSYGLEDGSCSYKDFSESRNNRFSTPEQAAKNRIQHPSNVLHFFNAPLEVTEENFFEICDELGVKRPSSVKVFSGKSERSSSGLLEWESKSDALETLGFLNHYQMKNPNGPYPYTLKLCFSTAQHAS
UniProt P09234, whole entry, looked up: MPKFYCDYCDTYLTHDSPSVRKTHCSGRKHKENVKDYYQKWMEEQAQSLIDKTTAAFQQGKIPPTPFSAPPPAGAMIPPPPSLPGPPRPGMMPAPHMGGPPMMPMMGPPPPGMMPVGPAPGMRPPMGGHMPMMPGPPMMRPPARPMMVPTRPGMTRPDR
UniProt P08237: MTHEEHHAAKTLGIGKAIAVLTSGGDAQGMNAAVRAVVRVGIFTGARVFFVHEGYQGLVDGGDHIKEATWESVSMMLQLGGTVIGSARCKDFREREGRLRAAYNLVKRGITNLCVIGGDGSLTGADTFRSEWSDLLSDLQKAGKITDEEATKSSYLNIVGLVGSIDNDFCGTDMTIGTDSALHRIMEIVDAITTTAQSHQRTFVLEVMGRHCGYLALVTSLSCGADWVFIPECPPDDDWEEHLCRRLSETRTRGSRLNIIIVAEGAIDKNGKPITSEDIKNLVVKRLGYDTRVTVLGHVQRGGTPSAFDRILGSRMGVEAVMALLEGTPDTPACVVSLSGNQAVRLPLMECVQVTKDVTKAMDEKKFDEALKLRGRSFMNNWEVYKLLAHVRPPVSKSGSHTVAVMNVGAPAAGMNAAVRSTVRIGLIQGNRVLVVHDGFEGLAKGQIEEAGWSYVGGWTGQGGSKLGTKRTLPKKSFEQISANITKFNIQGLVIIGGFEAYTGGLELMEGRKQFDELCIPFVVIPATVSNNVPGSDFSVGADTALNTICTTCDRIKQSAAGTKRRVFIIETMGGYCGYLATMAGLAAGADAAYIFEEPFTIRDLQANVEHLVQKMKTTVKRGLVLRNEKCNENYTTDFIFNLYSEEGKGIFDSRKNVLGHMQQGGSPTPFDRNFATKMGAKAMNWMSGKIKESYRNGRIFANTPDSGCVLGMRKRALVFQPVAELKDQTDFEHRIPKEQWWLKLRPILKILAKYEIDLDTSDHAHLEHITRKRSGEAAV
UniProt P12277: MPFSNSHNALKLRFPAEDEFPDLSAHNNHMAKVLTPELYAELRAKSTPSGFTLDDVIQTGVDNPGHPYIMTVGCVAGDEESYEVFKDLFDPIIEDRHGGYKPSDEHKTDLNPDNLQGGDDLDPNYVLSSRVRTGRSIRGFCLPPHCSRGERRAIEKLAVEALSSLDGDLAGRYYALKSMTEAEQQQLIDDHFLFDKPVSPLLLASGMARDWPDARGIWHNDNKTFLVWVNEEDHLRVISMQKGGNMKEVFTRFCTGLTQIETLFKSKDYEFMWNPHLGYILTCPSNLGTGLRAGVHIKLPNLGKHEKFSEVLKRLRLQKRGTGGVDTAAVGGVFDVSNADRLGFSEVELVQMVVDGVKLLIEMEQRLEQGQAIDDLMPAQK
UniProt P14735, whole entry, looked up: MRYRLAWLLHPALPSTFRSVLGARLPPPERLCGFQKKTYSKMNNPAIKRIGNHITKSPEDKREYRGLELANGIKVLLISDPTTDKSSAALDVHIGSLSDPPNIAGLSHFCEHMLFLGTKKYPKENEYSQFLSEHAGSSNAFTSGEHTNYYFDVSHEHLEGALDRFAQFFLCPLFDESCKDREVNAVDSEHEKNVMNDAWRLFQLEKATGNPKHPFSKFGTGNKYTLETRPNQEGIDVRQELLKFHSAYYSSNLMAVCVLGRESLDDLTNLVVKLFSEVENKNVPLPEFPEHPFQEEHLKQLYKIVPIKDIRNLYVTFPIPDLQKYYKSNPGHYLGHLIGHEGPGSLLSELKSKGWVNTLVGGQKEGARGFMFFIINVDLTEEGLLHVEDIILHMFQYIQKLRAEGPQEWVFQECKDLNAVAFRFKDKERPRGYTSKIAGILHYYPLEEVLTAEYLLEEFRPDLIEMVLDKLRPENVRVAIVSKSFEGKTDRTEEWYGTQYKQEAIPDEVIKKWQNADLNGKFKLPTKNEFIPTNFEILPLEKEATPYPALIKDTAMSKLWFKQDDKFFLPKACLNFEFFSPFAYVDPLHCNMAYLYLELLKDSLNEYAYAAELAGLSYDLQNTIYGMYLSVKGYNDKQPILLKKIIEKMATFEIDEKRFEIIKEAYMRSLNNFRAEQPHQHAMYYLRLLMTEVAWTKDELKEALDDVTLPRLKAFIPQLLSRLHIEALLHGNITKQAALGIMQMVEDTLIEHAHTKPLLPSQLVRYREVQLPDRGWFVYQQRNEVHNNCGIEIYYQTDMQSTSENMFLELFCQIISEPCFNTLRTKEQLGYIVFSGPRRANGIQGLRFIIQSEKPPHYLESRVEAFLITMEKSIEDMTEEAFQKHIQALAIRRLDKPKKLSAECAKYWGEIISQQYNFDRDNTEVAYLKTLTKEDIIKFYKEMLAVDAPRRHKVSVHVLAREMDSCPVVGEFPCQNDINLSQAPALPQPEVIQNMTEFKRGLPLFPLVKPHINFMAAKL
UniProt P08240: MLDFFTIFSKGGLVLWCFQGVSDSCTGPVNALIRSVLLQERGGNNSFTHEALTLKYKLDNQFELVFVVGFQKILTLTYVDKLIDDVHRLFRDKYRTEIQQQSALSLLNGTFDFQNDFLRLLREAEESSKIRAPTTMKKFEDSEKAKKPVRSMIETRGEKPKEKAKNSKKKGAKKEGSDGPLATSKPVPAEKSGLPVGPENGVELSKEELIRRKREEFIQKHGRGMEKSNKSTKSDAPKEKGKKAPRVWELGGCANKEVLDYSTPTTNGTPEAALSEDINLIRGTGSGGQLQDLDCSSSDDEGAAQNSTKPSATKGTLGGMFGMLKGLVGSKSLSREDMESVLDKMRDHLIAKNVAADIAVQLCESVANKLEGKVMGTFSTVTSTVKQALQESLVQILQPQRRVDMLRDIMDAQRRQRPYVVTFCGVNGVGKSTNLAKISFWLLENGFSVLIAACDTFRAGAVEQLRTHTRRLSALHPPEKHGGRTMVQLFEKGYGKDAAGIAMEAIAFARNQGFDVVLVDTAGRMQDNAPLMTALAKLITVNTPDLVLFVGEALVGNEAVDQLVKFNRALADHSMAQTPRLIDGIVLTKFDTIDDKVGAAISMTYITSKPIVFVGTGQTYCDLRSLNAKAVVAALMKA
UniProt P15924: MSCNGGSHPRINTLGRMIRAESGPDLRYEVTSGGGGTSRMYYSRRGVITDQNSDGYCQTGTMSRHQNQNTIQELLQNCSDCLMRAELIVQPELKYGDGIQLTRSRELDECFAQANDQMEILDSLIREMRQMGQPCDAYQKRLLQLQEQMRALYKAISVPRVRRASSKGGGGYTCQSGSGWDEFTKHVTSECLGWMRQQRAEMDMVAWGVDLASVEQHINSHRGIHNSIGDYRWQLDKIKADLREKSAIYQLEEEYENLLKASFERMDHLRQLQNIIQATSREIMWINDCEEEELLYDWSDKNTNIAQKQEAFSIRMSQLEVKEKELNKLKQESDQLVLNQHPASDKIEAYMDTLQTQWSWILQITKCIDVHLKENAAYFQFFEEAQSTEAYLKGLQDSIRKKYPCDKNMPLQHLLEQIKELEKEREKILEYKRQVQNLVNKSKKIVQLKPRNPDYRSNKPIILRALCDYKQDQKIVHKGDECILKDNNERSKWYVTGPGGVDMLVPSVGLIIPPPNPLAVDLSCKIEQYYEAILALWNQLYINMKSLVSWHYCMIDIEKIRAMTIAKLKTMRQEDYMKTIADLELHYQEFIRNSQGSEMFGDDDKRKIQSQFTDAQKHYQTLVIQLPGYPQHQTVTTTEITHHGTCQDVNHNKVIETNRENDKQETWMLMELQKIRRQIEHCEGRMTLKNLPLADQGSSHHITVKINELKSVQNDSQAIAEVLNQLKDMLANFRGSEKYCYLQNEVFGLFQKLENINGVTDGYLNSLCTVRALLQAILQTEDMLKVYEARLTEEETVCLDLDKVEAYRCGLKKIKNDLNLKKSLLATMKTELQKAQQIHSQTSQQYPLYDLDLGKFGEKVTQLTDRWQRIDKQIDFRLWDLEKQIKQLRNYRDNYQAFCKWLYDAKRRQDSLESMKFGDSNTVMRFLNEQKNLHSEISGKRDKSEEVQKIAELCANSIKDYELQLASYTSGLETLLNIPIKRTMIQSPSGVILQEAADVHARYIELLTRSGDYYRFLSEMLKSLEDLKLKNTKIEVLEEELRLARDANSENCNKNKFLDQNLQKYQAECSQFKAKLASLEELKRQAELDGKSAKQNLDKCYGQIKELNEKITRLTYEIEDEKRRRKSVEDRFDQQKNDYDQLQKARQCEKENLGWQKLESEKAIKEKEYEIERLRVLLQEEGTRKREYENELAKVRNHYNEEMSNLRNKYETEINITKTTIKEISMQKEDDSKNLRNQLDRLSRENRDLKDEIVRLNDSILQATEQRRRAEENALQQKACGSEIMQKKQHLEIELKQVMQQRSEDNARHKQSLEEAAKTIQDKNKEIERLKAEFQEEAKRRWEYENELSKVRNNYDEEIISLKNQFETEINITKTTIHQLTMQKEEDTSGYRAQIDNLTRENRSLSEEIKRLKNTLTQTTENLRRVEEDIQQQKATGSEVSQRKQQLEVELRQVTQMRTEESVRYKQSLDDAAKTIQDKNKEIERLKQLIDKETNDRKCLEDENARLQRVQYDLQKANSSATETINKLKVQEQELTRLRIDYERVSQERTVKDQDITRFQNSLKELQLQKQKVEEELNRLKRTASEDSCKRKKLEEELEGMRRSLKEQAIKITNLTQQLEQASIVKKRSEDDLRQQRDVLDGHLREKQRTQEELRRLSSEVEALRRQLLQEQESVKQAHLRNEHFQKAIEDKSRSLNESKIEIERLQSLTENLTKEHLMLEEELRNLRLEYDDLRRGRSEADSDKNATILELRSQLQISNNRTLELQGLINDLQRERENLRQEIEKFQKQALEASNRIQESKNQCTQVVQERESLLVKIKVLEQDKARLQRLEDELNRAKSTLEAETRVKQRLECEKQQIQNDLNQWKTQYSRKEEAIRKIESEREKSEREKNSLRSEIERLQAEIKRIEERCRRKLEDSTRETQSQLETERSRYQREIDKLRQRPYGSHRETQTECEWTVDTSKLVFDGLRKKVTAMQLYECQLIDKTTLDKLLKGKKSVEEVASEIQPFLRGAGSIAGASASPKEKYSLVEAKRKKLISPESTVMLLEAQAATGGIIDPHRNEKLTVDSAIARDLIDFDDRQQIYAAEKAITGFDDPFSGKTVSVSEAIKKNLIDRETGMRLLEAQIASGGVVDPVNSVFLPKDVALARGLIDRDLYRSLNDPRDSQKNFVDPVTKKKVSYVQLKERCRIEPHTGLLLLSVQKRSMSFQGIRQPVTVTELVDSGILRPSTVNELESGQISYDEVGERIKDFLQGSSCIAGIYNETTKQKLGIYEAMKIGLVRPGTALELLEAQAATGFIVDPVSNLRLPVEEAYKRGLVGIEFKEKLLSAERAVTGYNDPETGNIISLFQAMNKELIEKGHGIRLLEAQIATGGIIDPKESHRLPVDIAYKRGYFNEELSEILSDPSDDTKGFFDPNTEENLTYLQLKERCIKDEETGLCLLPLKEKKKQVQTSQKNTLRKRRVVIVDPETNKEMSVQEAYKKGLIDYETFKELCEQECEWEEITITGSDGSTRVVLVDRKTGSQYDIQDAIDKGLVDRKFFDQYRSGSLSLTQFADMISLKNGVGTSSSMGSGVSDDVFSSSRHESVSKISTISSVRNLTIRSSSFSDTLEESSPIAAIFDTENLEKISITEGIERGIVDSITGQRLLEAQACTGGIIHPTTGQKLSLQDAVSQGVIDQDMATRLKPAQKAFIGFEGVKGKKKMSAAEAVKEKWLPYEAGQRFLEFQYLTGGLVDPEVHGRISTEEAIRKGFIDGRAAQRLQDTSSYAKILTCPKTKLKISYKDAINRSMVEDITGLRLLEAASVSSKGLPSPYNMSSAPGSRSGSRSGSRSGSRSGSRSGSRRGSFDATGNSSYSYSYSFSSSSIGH

Compound: COC(=O)/C=C/c1ccccc1 [methyl cinnamate]
Assay: log2 ratio of iodoacetamide-alkyne labeling of the cysteine site, DMSO over compound (competition); higher = stronger covalent engagement of the cysteine by the compound, active = 1 or more
Conditions: 500 µM; treatment time 1 h; system: HEK293T cell lysate
Method in brief: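 Three replicates, each with duplicate channels, were prepared from HEK293T lysate (2 mg/mL) treated with vehicle or electrophile at 500 µM for 1 h at ambient temperature. Iodoacetamide alkyne was then applied for 1 h, and samples were clicked to sCIP-TMT reagents, pooled, trypsin-digested overnight at 37 °C, enriched on streptavidin, acid-eluted and analysed on Orbitrap Eclipse LC-MS/MS with FAIMS, with FragPipe quantification. The log2 competition ratio per cysteine is the mean control-channel divided by the mean compound-channel reporter intensity. Cysteines quantified in only one replicate were left out.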

log2 ratio of iodoacetamide-alkyne labeling, inactive:
COX6B1 C65 (UniProt P14854) -0.067
MAPT C639 (UniProt P10636) 0.257
PLS3 C566 (UniProt P13797) -0.0946
HNRNPL C404 (UniProt P14866) -0.0729
SNRPC C25 (UniProt P09234) 0.226
PABPC1 C339 (UniProt P11940) 0.167
PFKM C114 (UniProt P08237) 0.497
EEF2 C536 (UniProt P13639) -0.804
PCNA C162 (UniProt P12004) 0.16
EZR C117 (UniProt P15311) 0.32
CKB C283 (UniProt P12277) 0.182
JUP C511 (UniProt P14923) 0.0844
IDE C974 (UniProt P14735) 0.103
IMPDH2 C339 (UniProt P12268) 0.292
MTHFD1 C143 (UniProt P11586) -0.0108
HSP90AA1 C374 (UniProt P07900) -0.108
UniProt P0DMV8_C306 0.179
U2AF1L5 C18 (UniProt P0DN76) -0.244
UniProt P08240_C253 0.101
UniProt P14618_C358 -0.144
UniProt P10155_C71 0.205
HSPA8 C17 (UniProt P11142) -0.154
ACAA1 C177 (UniProt P09110) 0.199
PCNA C62 (UniProt P12004) 0.145
PABPC1 C132 (UniProt P11940) 0.116
RPSA C148 (UniProt P08865) 0.0931
IMPDH2 C140 (UniProt P12268) 0.168
RNH1 C248 (UniProt P13489) 0.0979
EEF2 C751 (UniProt P13639) 0.0624
ADH5 C97 (UniProt P11766) 0.361
SNRPB C43 (UniProt P14678) 0.0686
SP1 C604 (UniProt P08047) 0.353
HSP90AB1 C412 (UniProt P08238) -0.033
HSP90AB1 C366 (UniProt P08238) -0.0324
DLD C85 (UniProt P09622) 0.131
ESD C56 (UniProt P10768) -0.225
DSP C3 (UniProt P15924) 0.198

A run of entries taken from the entries so far, for reference:
log2 ratio of iodoacetamide-alkyne labeling, inactive:
JUP C511 (UniProt P14923) 0.0844
IDE C974 (UniProt P14735) 0.103
